Data taken from patent publication US5342841A, “Xanthine derivatives” (Kyowa Hakko Kogyo Co., Ltd., priority 1992, dated 1994).

Test system: Male Wistar rats
Assay: Diuretic activity (oral, saline-loaded rats)
Assay type: in vivo, rat
Conditions: 25 mg/kg, 6 hours, relative to control
Experimental: Male Wistar rats weighing 150 to 300 g were fasted for 18 hours. A test compound and saline (25 ml/kg) were orally administered to the test rats and only saline was administered to the control rats. Then, urine was collected for 6 hours. The test was carried out using 3 groups of animals per test compound, each group consisting of 3 animals. The volume of the urine was measured by using a measuring cylinder and electrolytes (Na^+ and K^+) in the urine were assayed with a flame photometer (Model […] manufactured by Hitachi Ltd.). The parameters in Table 3 are all expressed by relative value to the control.

NS(=O)(=O)c1cc(C(=O)O)c(NCc2ccco2)cc1Cl [Furosemide, reference compound]
Increase in K+ excretion: 57% | Increase in Na+ excretion: 64%
